Assay results reported in ChEMBL document CHEMBL2406983, “Synthesis and the 5-HT6 receptor antagonistic effect of 3-arylsulfonylamino-5,6-dihydro-6-substituted pyrazolo[3,4]pyridinones for neuropathic pain treatment” (Bioorg Med Chem Lett, 2013).

The chains behind the UniProt entries cited, without tags or fusion partners.
UniProt P50406, whole entry: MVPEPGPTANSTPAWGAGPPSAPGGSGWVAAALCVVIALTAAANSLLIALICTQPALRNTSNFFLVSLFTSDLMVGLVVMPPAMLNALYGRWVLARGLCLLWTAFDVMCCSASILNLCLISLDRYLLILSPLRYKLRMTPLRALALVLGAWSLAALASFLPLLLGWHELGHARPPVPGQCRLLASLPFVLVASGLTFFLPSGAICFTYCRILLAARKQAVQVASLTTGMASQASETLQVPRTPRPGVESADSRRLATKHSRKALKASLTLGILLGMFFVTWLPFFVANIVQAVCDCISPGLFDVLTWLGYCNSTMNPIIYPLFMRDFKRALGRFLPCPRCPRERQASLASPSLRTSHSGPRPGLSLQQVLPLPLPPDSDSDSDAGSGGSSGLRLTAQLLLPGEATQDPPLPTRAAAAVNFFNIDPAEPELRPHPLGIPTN

Target: 5-hydroxytryptamine receptor 6 (Homo sapiens, UniProt P50406)
Experiment: Antagonist activity at human 5-HT6 receptor expressed in human HeLa cells assessed as inhibition of 5-HT-induced cAMP accumulation pretreated for 10 mins before 5-HT addition measured after 30 mins
Format: functional, cell-based
Summary of the method: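 HeLa cells stably expressing human 5-HT6 receptor, grown at 37 °C in 5% CO2/95% air, suspended in PBS with 2 mM IBMX. Compound pretreatment 10 min, then 100 nM 5-HT stimulation for 30 min. cAMP measured by HTRF (d2-labeled cAMP plus cryptate anti-cAMP antibody, 1 h at room temperature), excitation 314 nm, emission 668 and 620 nm. Single-point inhibition read at […].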

SMILES: COc1ccc(NS(=O)(=O)c2ccc(I)cc2)cc1N1CCN(C)CC1
- IC50: 19 nM
